The other results are listed elsewhere or left out. The main result of the screen is listed elsewhere. These columns were measured beside it and carry no call. The list favours compounds with an active or inconclusive main result. The note in brackets gives the kind of curve behind each potency; many fits are weak. Where a SMILES comes first, the peptide text is derived from it. The star is where a group is joined. Boc = CC(C)(C)OC(=O)*; Bn = c1ccc(C*)cc1
Assay: qHTS Assay for Lipid Storage Modulators in Drosophila S3 Cells;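 as to cell number change: cells counted by Cell Tracker Red CMTPX staining in the red channel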
Conditions: BODIPY lipid droplet fluorescence, 18-24 h; for cell number change: measured here: cell count max response, cells fed with added oleic acid
Summary of the method: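 Drosophila S3 cells got compounds at several concentrations plus oleic acid (400 uM solution). Laser-scanning cytometry with 488 nm excitation read lipid droplets at 500-530 nm and cells at 575-640 nm. Percent activity was relative to 20 uM Triacsin C.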

[1] = measured here: lipid fluorescence (Fed channel) AC50, cells fed with added oleic acid
[2] = measured here: cell number channel AC50, cells fed with added oleic acid

SMILES	AC50 [1]	cell number change	AC50 [2]
COc1cc(C(=O)Nc2nc3ccc(S(=O)(=O)N4CCOCC4)cc3s2)cc(OC)c1OC	6.51 µM [falling, single point]		
CCNC(=O)n1cc(-n2cncn2)c(-c2ccccc2)n1	6.51 µM [falling, single point]	-20%	6.51 µM [falling, single point]
COc1ccc(NC(=O)C/C(C)=N/NC(=O)c2ccco2)c([N+](=O)[O-])c1		16.2%	
Cc1cccc(C)c1NC(=O)CN(C)CC(=O)Nc1ccccc1Oc1ccccc1		6.84%	
NC(=O)c1ccccc1NC(=O)CCc1ccccc1		10.2%	0.291 µM [rising, full curve, poor fit]
COc1ccccc1CNC(=O)CSc1ncc(C(=O)Nc2ccccc2)c(=O)n1C		9%	
CCN(CC(=O)Nc1ccc(OC)cc1)C(=O)c1cc([N+](=O)[O-])ccc1N1CCOCC1		38.7%	10.3 µM [rising, partial curve, poor fit]
O=C(Nc1nccs1)C1CCN(S(=O)(=O)c2ccc3c(c2)OCCCO3)CC1		91.3%	5.8 µM [rising, full curve]
CN1CCN(CC(=O)N2CCn3c4c(c5cc(C6CCCCC6)ccc53)CCCC42)CC1 (stereo unspecified)	0.00461 µM [falling, full curve, poor fit]	-44.1%	32.6 µM [falling, single point]
COc1cccc(OC)c1C(=O)Nc1c(C(=O)N2CCN(c3ccccn3)CC2)oc2ccccc12	0.58 µM [rising, single point]	-8.22%	
Cc1ccc(C(C)C)c(OCC(=O)NNC2=CC(=O)CC(C)(C)C2)c1		-3.63%	
CCC(=O)c1ccc(OCC(O)CN(CCc2ccccc2)Cc2ccccc2)cc1 (stereo unspecified)	1.46 µM [falling, partial curve]	-14.9%	
CCCn1c(SCC(=O)N(C2CCCCC2)C2CCS(=O)(=O)C2)n[nH]c1=O (stereo unspecified)	0.13 µM [falling, full curve, poor fit]	-15.5%	5.8 µM [falling, partial curve, poor fit]
Cc1ccc(NC(=O)CCNS(=O)(=O)c2cccs2)cc1F	6.51 µM [falling, partial curve, poor fit]		
Cn1cnnc1SCC(=O)Nc1c(F)cc(F)cc1Br		-14.6%	0.92 µM [falling, full curve, poor fit]
O=C(NCc1ccccc1Cl)C1CCC(=O)N1Cc1ccc(F)cc1 (stereo unspecified)		11.3%	0.82 µM [rising, single point]
COc1ccc(NC(=O)c2ccc(-n3cccn3)nc2)cc1		10.9%	3.66 µM [rising, single point]
O=C(NCCCN1CCOCC1)c1ccc(S(=O)(=O)Nc2ccccc2F)cc1		-4.98%	
COc1ccc(C(CNC(=O)c2ccc3c(c2)C(=O)N(CCC(C)C)C3=O)N2CCOCC2)cc1 (stereo unspecified)	0.651 µM [rising, single point]	-7.78%	
Cc1c(CCOC(=O)c2cc([N+](=O)[O-])ccc2Cl)sc[n+]1CCCCS(=O)(=O)[O-]		12%	0.13 µM [falling, full curve, poor fit]

Arranged by SMILES length (low to high): some entries from above.
SMILES	AC50 [1]	cell number change	AC50 [2]
Cn1cnnc1SCC(=O)Nc1c(F)cc(F)cc1Br		-14.6%	0.92 µM [falling, full curve, poor fit]
COc1ccc(NC(=O)c2ccc(-n3cccn3)nc2)cc1		10.9%	3.66 µM [rising, single point]
CCC(=O)c1ccc(OCC(O)CN(CCc2ccccc2)Cc2ccccc2)cc1 (stereo unspecified)	1.46 µM [falling, partial curve]	-14.9%	
Cc1cccc(C)c1NC(=O)CN(C)CC(=O)Nc1ccccc1Oc1ccccc1		6.84%	
COc1ccccc1CNC(=O)CSc1ncc(C(=O)Nc2ccccc2)c(=O)n1C		9%	
CN1CCN(CC(=O)N2CCn3c4c(c5cc(C6CCCCC6)ccc53)CCCC42)CC1 (stereo unspecified)	0.00461 µM [falling, full curve, poor fit]	-44.1%	32.6 µM [falling, single point]
COc1ccc(NC(=O)C/C(C)=N/NC(=O)c2ccco2)c([N+](=O)[O-])c1		16.2%	
COc1cccc(OC)c1C(=O)Nc1c(C(=O)N2CCN(c3ccccn3)CC2)oc2ccccc12	0.58 µM [rising, single point]	-8.22%	
CCN(CC(=O)Nc1ccc(OC)cc1)C(=O)c1cc([N+](=O)[O-])ccc1N1CCOCC1		38.7%	10.3 µM [rising, partial curve, poor fit]
COc1ccc(C(CNC(=O)c2ccc3c(c2)C(=O)N(CCC(C)C)C3=O)N2CCOCC2)cc1 (stereo unspecified)	0.651 µM [rising, single point]	-7.78%	
Cc1c(CCOC(=O)c2cc([N+](=O)[O-])ccc2Cl)sc[n+]1CCCCS(=O)(=O)[O-]		12%	0.13 µM [falling, full curve, poor fit]

Further results:

SMILES	AC50 [1]	cell number change	AC50 [2]
CC1(C)Cc2ccccc2C(C(Cc2ccccc2)C(N)=O)=N1 (stereo unspecified)		20.3%	
CN(c1ccccc1C(=O)NC1CC2CCC1C2)S(=O)(=O)c1ccccc1 (stereo unspecified)	18.4 µM [falling, partial curve, poor fit]	-14.2%	
COc1ccc(/C(O)=C2/C(=O)C(=O)N(c3nc(C)c(C)s3)C2c2ccco2)cc1 (stereo unspecified)	1.16 µM [falling, full curve, poor fit]	5.49%	
Cc1ccc(-c2noc(C3CCCN(C(=O)c4cccc(Cl)c4)C3)n2)o1 (stereo unspecified)		6.58%	
O=C(Cc1cccc(C(F)(F)F)c1)Nc1ccccc1N1CCCC1	35.5 µM [falling, single point]		
O=C1CC(N2CCSCC2)C(=O)N1c1ccc(Br)cc1 (stereo unspecified)	4.11 µM [falling, single point]	4.16%	
COc1ccc(N2CCN(Cc3cc(=O)oc4cc(-c5ccccc5)c(O)cc34)CC2)cc1		-27%	0.82 µM [falling, full curve, poor fit]
CN1CCN(C(=O)/C=C/c2ccc([N+](=O)[O-])o2)CC1	23.1 µM [falling, partial curve, poor fit]		
Nc1nc(-c2ccco2)nn1C(=O)c1ccc(Cl)cc1	3.66 µM [falling, partial curve]		
CCn1c(SCC(=O)NCc2ccccc2)nc2nc3c(cc2c1=O)CCCC3	0.651 µM [falling, single point]	4.31%	
COc1ccc(Nc2oc(COc3cccc(C)c3)nc2C#N)cc1	3.26 µM [rising, partial curve]		
Cc1ccsc1C(=O)OCC(=O)NCCCc1ccccc1	0.0411 µM [rising, partial curve, poor fit]	27.3%	
C/C(=N\NC(=O)c1cc(C)nc2ccc(C)cc12)c1ccncc1	29.1 µM [rising, single point]	-21.3%	
CCN(Cc1nc2ccccc2c(=O)[nH]1)C(=O)c1cccc(NC(=O)c2cccs2)c1	0.731 µM [rising, partial curve]	15.5%	
CCN(CC(=O)Nc1c(F)cccc1F)C(=O)C1CC1	0.731 µM [rising, full curve]	-8.45%	
CC1CCCC(C)N1/N=C/c1cccc(Br)c1 (stereo unspecified)		-32.9%	29.1 µM [falling, single point]
CCOC(=O)C1=C(N)n2c(s/c(=C\c3ccncc3)c2=O)=C(C(=O)OCC)C1c1ccncc1 (stereo unspecified)	4.11 µM [rising, partial curve, poor fit]	1.38%	
CCNC(=O)CC1C(=O)N(c2cccc(OC)c2)C(=O)N1CCOC (stereo unspecified)	0.00731 µM [falling, full curve, poor fit]	-17.4%	
Cc1ccnc(NC(=O)CSc2ccc3c(c2)OCCO3)c1	6.51 µM [falling, single point]	28.7%	
O=[N+]([O-])c1cccc(-n2cc3ccc([N+](=O)[O-])cc3n2)c1	0.164 µM [falling, full curve, poor fit]	-7.42%	0.58 µM [rising, single point]

SMILES	AC50 [1]	cell number change	AC50 [2]
CC(OC(=O)c1cccc(-n2cnnn2)c1)C(=O)N(C)c1ccccc1 (stereo unspecified)	11.6 µM [falling, partial curve]	-35.2%	14.6 µM [falling, single point]
C#CCOCCOCCOCCNc1nc(N2CCN(C(=O)CCCCCCCCCCNC(=O)[C@H](CCCN=C(N)N)n3cc(C[C@@H](C)CC)nn3)CC2)nc(N2CCN(C(=O)CCCCCCCCCCNC(=O)[C@@H]([C@H](C)CC)n3cc(CCCCCN)nn3)CC2)n1	20.6 µM [falling, partial curve]	-57.8%	20.6 µM [falling, partial curve]
CC(Nc1nc(-c2ccccc2)nc2ccccc12)c1ccccc1 (stereo unspecified)		43%	
O=S(=O)(N/N=C/c1ccc(N2CCOCC2)cc1)c1ccccc1	0.00461 µM [falling, full curve, poor fit]	-19.7%	0.00461 µM [falling, full curve, poor fit]
O=C(CSc1ncccn1)NC(=O)NCc1ccccc1	6.51 µM [falling, single point]	2.16%	
CN(C(=O)COC(=O)c1cncc(Br)c1)C1CCS(=O)(=O)C1 (stereo unspecified)	0.411 µM [falling, full curve]	-13.8%	
CC(C)CC(NC(=O)C(CC(C)C)NC(=O)C(Cc1ccc(OCc2ccccc2)cc1)NC(=O)OC(C)(C)C)C(N)=O (stereo not drawn) (Boc-Tyr(Bn)-Leu-Leu-NH2; configuration not given here)	3.66 µM [falling, single point]	8.59%	
CCn1c(COc2ccccc2C)nnc1SCC(=O)NCc1ccccc1	2.06 µM [falling, full curve, poor fit]	-38.9%	4.61 µM [falling, full curve]
COc1ccccc1NC(=O)C(=O)NCC(c1ccco1)N1CCc2ccccc21 (stereo unspecified)		12.3%	
O=C(NNC(=O)c1cccs1)c1cccnc1		5.65%	
CCCC(=O)NCc1nc2ccccc2n1CC(=O)c1ccccc1	29.1 µM [rising, single point]	22.6%	
CCCn1c(SCC(=O)NC2CCCCC2)nnc1C1CC1	29.1 µM [falling, single point]	-29.6%	
CCCC(NC(=O)C(C)Sc1nnnn1C1CC1)c1ccccc1 (stereo unspecified)	2.59 µM [falling, partial curve]	-2.59%	
CC1Cc2ccccc2N1c1ncnc(N)c1[N+](=O)[O-] (stereo unspecified)	29.1 µM [falling, single point]	-32.5%	29.1 µM [falling, single point]
CCCNC(=O)C1CCCN(S(=O)(=O)c2ccc3c(c2)CC(C)N3C(=O)C2CC2)C1 (stereo unspecified)	0.517 µM [rising, single point]	37.7%	
CN1CCN(Cc2c(O)ccc3occ(C(=O)c4ccccc4)c23)CC1	29.1 µM [rising, single point]	-20.9%	
CSc1nc(-c2ccccc2)cc(C)c1C#N	20.6 µM [rising, partial curve]	11.2%	
COc1ccc(CC(=O)Nc2cc3oc4ccccc4c3cc2OC)cc1	6.51 µM [rising, single point]	18.3%	
COc1ccccc1Nc1nc(N)nc(CSc2ncccn2)n1	1.64 µM [rising, full curve]	8.59%	

— PubChem BioAssay AID2685 (National Center for Advancing Translational Sciences (NCATS), 2010)
